Reference: article PMC11236974

Assays:
[1] = biological target: T1, FliG of the polar flagellar system, full length (pulldown prey) (S. putrefaciens); experiment: pull-down; cultures of StrepII-tagged bait and His-tagged tested proteins combined and lysed; lysate on MagStrep Strep-Tactin XT beads, 30 min, 4 °C; three washes with SEC buffer; eluted with D-biotin; Coomassie-stained SDS-PAGE
T1 sequence: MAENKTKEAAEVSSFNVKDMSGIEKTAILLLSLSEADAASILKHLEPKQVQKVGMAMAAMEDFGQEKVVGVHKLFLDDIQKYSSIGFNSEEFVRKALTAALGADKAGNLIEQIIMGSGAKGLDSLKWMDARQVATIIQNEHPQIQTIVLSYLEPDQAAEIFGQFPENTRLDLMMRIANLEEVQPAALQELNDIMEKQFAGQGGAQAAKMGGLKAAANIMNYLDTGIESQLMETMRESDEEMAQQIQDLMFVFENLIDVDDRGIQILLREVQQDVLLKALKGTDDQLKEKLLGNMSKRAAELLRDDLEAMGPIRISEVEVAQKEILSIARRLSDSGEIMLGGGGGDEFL

[2] = biological target: FlhF (yeast two-hybrid bait) (S. putrefaciens) (UniProt A4Y8J9); experiment: two-hybrid; yeast two-hybrid; bait fused to the Gal4 DNA-binding domain, preys to the Gal4 activation domain; strain PJ69-4A; growth on -HLT (HIS3) and -ALT (ADE2) plates, 3 days at 30 °C
[3] = biological target: StrepII-tagged B-domain truncation with the first 60 amino acids of FlhF (S. putrefaciens) (UniProt A4Y8J9); experiment: pull-down; cultures of StrepII-tagged bait and His-tagged tested proteins combined and lysed; lysate on MagStrep Strep-Tactin XT beads, 30 min, 4 °C; three washes with SEC buffer; eluted with D-biotin; Coomassie-stained SDS-PAGE

binding [1]: binds
Molecule: cytoplasmic domain of FliF (pulldown prey) (S. putrefaciens) (domain or fragment)

B1: FliN of the polar flagellar system (yeast two-hybrid prey) (protein, UniProt A0ABX8X9E3 1-127)
chain: MSTEDTGDDWAAAMAEQALEEANAVALDELVDDSQPISKADAAKLDTILDIPVTISMEVGRSFISIRNLLQLNQGSVVELDRVAGEPLDVMVNGTLIAHGEVVVVNDKFGIRLTDVISQTERIKKLK
binding [2]: no binding

B2: FliM of the polar flagellar system (yeast two-hybrid prey) (protein, UniProt A0ABX8X8Z6 1-343)
chain: MSDLLSQDEIDALLHGVDDVDDDDDLDAASQDARSYDFSSQDRIVRGRMPTLEIVNERFARHLRISMFNMMRRAAEVSINGVQMLKFGEYVHTLFVPTSLNMVRFSPLKGTALITMEARLVFILVDNFFGGDGRFHAKIEGREFTPTERRIVQLLLKIIFEDYKDAWAPVMDVEFDYLDSEVNPAMANIVSPTEVVVINSFHIEVDGGGGDFHITMPYSMIEPIRELLDAGVQSDKQDTDMRWSQALHDEIMDVKVGFDACVVEHELTLKDVMNFKAGDIIPVELPEYIMMKIEDLPTYRCKMGRSRDNLALKIYEKIPRPETVKTELQLVTRKGKARDISEL
binding [2]: no binding

binding [3]: binds
B3: FliG of the polar flagellar system, full length (pulldown prey) (protein, UniProt A0ABX8X876 1-348)
chain: T1 sequence

Results are given in words; binding and its absence hold for the method and conditions named. For some of these results: Binding seen in cells or lysates may run through a third protein. For some of these results: Binding calls can cover weak binding; strength is not graded here. Tags and fused reporters may be left off the sequences shown. One block for each molecule: values may come before it.
